From paper PMC4118445
No constants are given. Whether binding was seen depends on the method and setting. In cells and extracts the contact can be indirect. Some binding calls cover weakened binding; strength is not graded here. Sequences can lack the tags named with a protein.

Biological target: T1, TGR5 fused to a fluorescent protein at the C-terminus, Q8TDU6
T1 chain: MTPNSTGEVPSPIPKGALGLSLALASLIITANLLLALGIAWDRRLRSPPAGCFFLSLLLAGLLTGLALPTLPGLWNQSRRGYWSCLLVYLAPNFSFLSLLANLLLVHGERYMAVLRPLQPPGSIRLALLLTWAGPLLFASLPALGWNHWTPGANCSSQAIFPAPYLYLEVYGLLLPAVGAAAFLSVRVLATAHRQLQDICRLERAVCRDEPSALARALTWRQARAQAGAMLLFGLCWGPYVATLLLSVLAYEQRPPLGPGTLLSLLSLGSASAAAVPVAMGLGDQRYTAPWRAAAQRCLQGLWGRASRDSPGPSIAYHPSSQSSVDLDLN
Experiment: FRET or BRET; MFIS-FRET in live Hep2 cells co-transfected with TGR5-GFP (donor) and TGR5-mCherry (acceptor); donor fluorescence lifetime; acceptor titration, EGFP-mCherry ratio 1:1 to 1:20
Details: remark: other sources report otherwise

binding: binds
B1: TGR5 fused to a fluorescent protein at the C-terminus, Q8TDU6 1-330 (receptor)
chain: MTPNSTGEVPSPIPKGALGLSLALASLIITANLLLALGIAWDRRLRSPPAGCFFLSLLLAGLLTGLALPTLPGLWNQSRRGYWSCLLVYLAPNFSFLSLLANLLLVHGERYMAVLRPLQPPGSIRLALLLTWAGPLLFASLPALGWNHWTPGANCSSQAIFPAPYLYLEVYGLLLPAVGAAAFLSVRVLATAHRQLQDICRLERAVCRDEPSALARALTWRQARAQAGAMLLFGLCWGPYVATLLLSVLAYEQRPPLGPGTLLSLLSLGSASAAAVPVAMGLGDQRYTAPWRAAAQRCLQGLWGRASRDSPGPSIAYHPSSQSSVDLDLN
